## Melanoma cell counts after drug treatment

Source: doi:10.1371/journal.pone.0140310, primary screening data, rounded.

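Human melanoma cell lines in 1,536-well plates were treated with a pair of drugs for 72 h, then fixed, stained and imaged. Values are the number of DAPI-stained nuclei as a percentage of the DMSO control: 100 is no effect, lower means fewer cells. Every drug was used at one fixed concentration, the higher of two screened. The file gives one value for each pair and line, without errors, so small differences may be noise.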 This is part of the screen, not chosen by result. An entry leaves out what has no value listed here. A dash means that no value is listed here.

All values are for the listed drug together with NVP-BEZ235 (0.02 µM): Cn1c(=O)n(-c2ccc(C(C)(C)C#N)cc2)c2c3cc(-c4cnc5ccccc5c4)ccc3ncc21

Drugs:
stibogluconate, 10 µM: O=C(O)[C@@H]1[O][Sb](=[O])([O][Sb]2(=[O])[O][C@H]([C@H](O)CO)[C@H](O)[C@H](C(=O)O)[O]2)[O][C@H]([C@H](O)CO)[C@@H]1O (stereo not given in full)
everolimus, 0.1 µM: CO[C@H]1C[C@@H]2CC[C@@H](C)[C@@](O)(O2)C(=O)C(=O)N2CCCC[C@H]2C(=O)O[C@H]([C@H](C)C[C@@H]2CC[C@@H](OCCO)[C@H](OC)C2)CC(=O)[C@H](C)/C=C(\C)[C@@H](O)[C@@H](OC)C(=O)[C@H](C)C[C@H](C)/C=C/C=C/C=C/1C
YM155, 0.002 µM: COCC[n+]1c2c(n(Cc3cnccn3)c1C)C(=O)c1ccccc1C2=O
GW0742, 10 µM: Cc1cc(SCc2sc(-c3ccc(C(F)(F)F)c(F)c3)nc2C)ccc1OCC(=O)O
ZM336372, 10 µM: Cc1ccc(NC(=O)c2cccc(N(C)C)c2)cc1NC(=O)c1ccc(O)cc1
SNS-314, 0.004 µM: O=C(Nc1cccc(Cl)c1)Nc1ncc(CCNc2ncnc3ccsc23)s1
sorafenib, 2 µM: CNC(=O)c1cc(Oc2ccc(NC(=O)Nc3ccc(Cl)c(C(F)(F)F)c3)cc2)ccn1
dorsomorphin, 2 µM: c1cc(-c2cnn3cc(-c4ccc(OCCN5CCCCC5)cc4)cnc23)ccn1
fludarabine, 1 µM: Nc1nc(F)nc2c1ncn2[C@@H]1O[C@H](CO)[C@@H](O)[C@@H]1O
GSK650394, 0.8 µM: O=C(O)c1ccc(-c2c[nH]c3ncc(-c4ccccc4)cc23)cc1C1CCCC1
BMS-536924, 1 µM: Cc1cc(N2CCOCC2)cc2[nH]c(-c3c(NC[C@@H](O)c4cccc(Cl)c4)cc[nH]c3=O)nc12
CHIR-265, 0.4 µM: Cn1c(Nc2ccc(C(F)(F)F)cc2)nc2cc(Oc3ccnc(-c4ncc(C(F)(F)F)[nH]4)c3)ccc21
tanespimycin, 0.01 µM: C=CCNC1=C2C[C@@H](C)C[C@H](OC)[C@H](O)[C@@H](C)/C=C(\C)[C@H](OC(N)=O)[C@@H](OC)/C=C\C=C(/C)C(=O)NC(=CC1=O)C2=O
CX-4945, 2 µM: O=C(O)c1ccc2c(c1)nc(Nc1cccc(Cl)c1)c1ccncc12
CP-690550, 5 µM: C[C@@H]1CCN(C(=O)CC#N)C[C@@H]1N(C)c1ncnc2[nH]ccc12
indole-3-carbinol, 4 µM: OCc1c[nH]c2ccccc12
ruxolitinib, 5 µM: N#CC[C@H](C1CCCC1)n1cc(-c2ncnc3[nH]ccc23)cn1
AZD7762, 0.1 µM: NC(=O)Nc1cc(-c2cccc(F)c2)sc1C(=O)N[C@H]1CCCNC1
Src-I1, 10 µM: COc1cc2ncnc(Nc3ccc(Oc4ccccc4)cc3)c2cc1OC
VX-702, 2 µM: NC(=O)c1ccc(N(C(N)=O)c2c(F)cccc2F)nc1-c1ccc(F)cc1F
gemcitabine, 0.002 µM: Nc1ccn([C@@H]2O[C@H](CO)[C@@H](O)C2(F)F)c(=O)n1
palbociclib, 0.2 µM: CC(=O)c1c(C)c2cnc(Nc3ccc(N4CCNCC4)cn3)nc2n(C2CCCC2)c1=O
crizotinib, 1 µM: C[C@@H](Oc1cc(-c2cnn(C3CCNCC3)c2)cnc1N)c1c(Cl)ccc(F)c1Cl
AS-252424, 5 µM: O=C1NC(=O)/C(=C/c2ccc(-c3ccc(F)cc3O)o2)S1
tamatinib, 2 µM: COc1cc(Nc2ncc(F)c(Nc3ccc4c(n3)NC(=O)C(C)(C)O4)n2)cc(OC)c1OC
FH535, 5 µM: Cc1cc([N+](=O)[O-])ccc1NS(=O)(=O)c1cc(Cl)ccc1Cl

Second drug	COLO 800	WM451Lu	WM3619	COLO 829	C32	COLO 792
AS-252424	69.3	85.7	77.4	61.5	89.5	88.5
ZM336372	99.5	85.8	74.8	111	99.1	86.3
gemcitabine	83.4	46.1	53.4	49.0	62.2	49.6
crizotinib	105	79.2	72.1	80.8	85.9	49.3
AZD7762	74.5	70.2	16.6	82.2	51.6	37.3
BMS-536924	18.3	56.9	65.7	102	76.5	28.3
Src-I1	140	56.2	63.7	85.7	90.6	44.2
sorafenib	61.4	77.1	67.0	100	78.1	62.9
tanespimycin	68.5	51.8	48.6	73.1	15.1	50.0
dorsomorphin	81.2	58.5	59.6	63.0	58.8	53.7
FH535	74.1	78.9	43.5	67.2	78.7	43.1
SNS-314	29.5	64.0	62.1	77.4	88.5	35.9
GW0742	70.3	96.2	70.1	93.0	102	72.1
CX-4945	68.9	74.1	65.4	61.4	84.6	30.0
VX-702	124	76.7	71.9	66.5	81.7	68.2
palbociclib	76.4	57.9	62.2	71.1	91.1	40.5
everolimus	50.5	45.1	-	56.5	69.6	21.1
tamatinib	39.4	57.3	59.9	63.3	90.4	21.7
indole-3-carbinol	75.2	81.2	87.7	95.7	92.1	60.6
CHIR-265	71.2	30.4	31.1	46.4	33.2	12.1
GSK650394	93.2	83.2	61.7	94.2	82.4	66.7
YM155	31.8	22.4	58.7	65.0	96.1	33.5
CP-690550	42.0	105	82.3	95.0	105	60.3
fludarabine	65.2	73.5	61.8	76.8	85.2	47.4
ruxolitinib	89.6	78.9	69.9	76.8	80.4	34.1
stibogluconate	59.7	103	62.1	75.2	89.1	63.9

The last 2 entries again:

- ruxolitinib | COLO 800: 89.6; WM451Lu: 78.9; WM3619: 69.9; COLO 829: 76.8; C32: 80.4; COLO 792: 34.1
- stibogluconate | COLO 800: 59.7; WM451Lu: 103; WM3619: 62.1; COLO 829: 75.2; C32: 89.1; COLO 792: 63.9